These are yes or no findings as the source states them, for the method shown. Binding seen in cells or lysates may run through a third protein. Some entries that bind do so weakly or less than the wild type.
What was measured:
[1] = target: SET variant (SEQ ID NO: 3) from BV2 microglial cells (mouse (BV2 microglial cells)); assay: streptavidin bead pull-down from BV2 total protein, SDS-PAGE, bands identified by MS/MS
[2] = target: SET variant (SEQ ID NO: 4) from BV2 microglial cells (mouse (BV2 microglial cells)) (UniProt Q9EQU5); assay: as above
[3] = target: human brain SET protein (human) (UniProt Q01105); assay: streptavidin agarose pull-down from human brain extract, anti-SET western blot
[4] = target: SET variant (SEQ ID NO: 3) from BV2 microglial cells (mouse (BV2 microglial cells)); assay: streptavidin-agarose pull-down from BV2 cell extracts, anti-SET western blot
[5] = target: SET variant (SEQ ID NO: 4) from BV2 microglial cells (mouse (BV2 microglial cells)) (UniProt Q9EQU5); assay: as above
[6] = target: human brain SET protein (human) (UniProt Q01105); assay: 100 ng biotinylated COG 133 in 1 mg human brain supernatant, streptavidin agarose pull-down, anti-SET western blot

By UniProt entry, the sequences of proteins in these tests, tags left out. Where a name states a change or a piece, a line headed by the entry shows the natural chain unless it says otherwise. Residues count along the entry.
UniProt Q9EQU5: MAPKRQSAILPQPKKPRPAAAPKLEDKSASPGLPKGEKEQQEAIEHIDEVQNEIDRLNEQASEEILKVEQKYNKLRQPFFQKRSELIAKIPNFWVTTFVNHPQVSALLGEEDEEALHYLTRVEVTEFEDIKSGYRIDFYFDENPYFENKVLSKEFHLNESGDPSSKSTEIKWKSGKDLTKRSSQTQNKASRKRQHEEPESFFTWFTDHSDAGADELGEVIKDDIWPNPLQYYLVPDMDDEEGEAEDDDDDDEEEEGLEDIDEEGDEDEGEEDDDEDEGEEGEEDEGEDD
UniProt Q01105, residues 2-290: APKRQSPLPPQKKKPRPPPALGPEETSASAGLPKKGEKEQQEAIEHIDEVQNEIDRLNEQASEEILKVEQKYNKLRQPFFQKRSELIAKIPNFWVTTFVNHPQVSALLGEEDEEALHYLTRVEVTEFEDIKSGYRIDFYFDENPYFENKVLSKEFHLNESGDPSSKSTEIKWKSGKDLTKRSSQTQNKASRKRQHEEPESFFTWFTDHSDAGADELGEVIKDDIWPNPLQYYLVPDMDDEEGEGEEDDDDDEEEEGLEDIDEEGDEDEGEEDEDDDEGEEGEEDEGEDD

Measured: binding

B1: biotinylated COG 133 (COG 133 peptide with biotin attached to the N-terminus) (peptide)
peptide: LRVRLASHLRKLRKRLL
modifications: biotin attached to the N-terminus
binds: all assays above
